From publication PMC8834516
No constants are given. Whether binding was seen depends on the method and setting. Binding seen in cells or lysates may run through a third protein. Here binding means that the protein was enriched with, or labelled near, the bait; the list need not be complete.

Molecular target: T1, Transglutaminase-2 (mouse (endogenous in mouse brain)) (UniProt P21981)
T1 sequence: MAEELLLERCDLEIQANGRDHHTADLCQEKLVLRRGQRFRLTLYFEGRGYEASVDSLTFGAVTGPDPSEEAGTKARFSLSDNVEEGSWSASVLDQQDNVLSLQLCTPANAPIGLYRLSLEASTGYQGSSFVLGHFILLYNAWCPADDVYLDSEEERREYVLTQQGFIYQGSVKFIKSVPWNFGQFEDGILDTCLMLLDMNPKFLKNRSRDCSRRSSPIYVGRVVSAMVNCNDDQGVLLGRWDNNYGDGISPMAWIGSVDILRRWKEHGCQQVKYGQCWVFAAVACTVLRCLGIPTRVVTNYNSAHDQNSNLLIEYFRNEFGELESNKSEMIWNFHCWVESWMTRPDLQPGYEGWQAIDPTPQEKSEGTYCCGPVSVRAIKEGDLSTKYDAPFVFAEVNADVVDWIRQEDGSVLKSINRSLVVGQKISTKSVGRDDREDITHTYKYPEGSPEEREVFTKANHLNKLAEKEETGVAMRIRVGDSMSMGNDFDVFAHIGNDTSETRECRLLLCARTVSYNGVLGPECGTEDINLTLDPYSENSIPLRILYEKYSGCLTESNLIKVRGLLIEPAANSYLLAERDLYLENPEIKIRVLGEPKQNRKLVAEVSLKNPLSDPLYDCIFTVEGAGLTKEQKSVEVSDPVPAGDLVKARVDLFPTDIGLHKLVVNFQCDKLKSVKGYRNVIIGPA
Assay: affinity purification with mass spectrometry; TG2 immunoprecipitated from total brain homogenates of 18-month-old WT and APP23 mice with anti-TG2 antibody IA12 crosslinked to protein A/G magnetic beads, 22 h at 4 °C; IP lysis buffer 25 mM Tris pH 7.4, 150 mM NaCl, 1 mM EDTA, 1% NP40, 5% glycerol; on-bead trypsin digest, SWATH MS; TG2−/− cohorts as background, z-test p ≤ 0.05, n = 5 per cohort

B1: Ly-6/neurotoxin-like protein 1 (protein, UniProt P0DP60 21-92)
chain: LECHVCAYNGDNCFKPMRCPAMATYCMTTRTYFTPYRMKVRKSCVPSCFETVYDGYSKHASATSCCQYYLCN
**Q.** Which binding does the source give for B1 here?
**A.** binds

B2: Protein SOGA3 (protein, UniProt Q6NZL0 26-945)
chain: RMHPEGCSRKQQRAQSPARPRDNSLRQTAGATRSPLGVGPKLNSVRQQQLQQQQQQGNKITGRSTSGTGSRGLGGGAEKAVPSIPKGAVPGAVQPAPGAEGSPAAILASVSFRRSGQPEEAPREIESGPSKVGEPPPLGGVGGGGEGGGAGGGPGDREGGAPQPPPPRGWRGKGVRATQRGSSVAEGVSPSPPTAATSKTPGPGSRNSGSGSTGSGSGGGGSYWKEGCLQSELIQFHLKKERAAAAAAAAQMHTKNGGGGSRSSPVAGAPAICEPLVVPSSSPMAAAAEGPQQSAEGNGSGGAMQAAAPPSSQPHSQQLQEQEDMQEEMEKLREENETLKNEIDELRTEMDEMRDTFFEEDACQLQEMRHELERANKNCRILQYRLRKAERKRLRYAQTGEIDGELLRSLEQDLKVAKDVSVRLHHELENVEEKRTTTEDENEKLRQQLIEVEIAKQALQNELEKMKELSLKRRGSKDLPKSEKKAQQTPTEDDNEDLKCQLQFVKEEAALMRKKMAKIDKEKDRFEHELQKYRSFYGDLDSPLPKGEAGGPPSTREAELKLRLRLVEEEANILGRKIVELEVENRGLKAELDDLRGEDFNGSSNPLMREQSESLSELRQHLQLVEDETELLRRNVADLEEQNKRITAELNKYKYKSSGHDSSRHHDNAKTEALQEELKAARLQINELSGKVMQLQYENRVLMSNMQRYDLASHLGIRGSPRDSDAESDAGKKESDDDSRPPHRKREGPIGGESDSEEVRNIRSLTPTRSFYPTPGPWPKSFSDRQQMKDIRSEAERLGKTIDRLIADTSTIITEARIYVANGDLFGLMDEEDDGSRIREHELLYRINAQMKAFRKELQTFIDRLEVPKSADDRGAEEPISVSQMFQPIILLILILVLFSSLSYTTIFKLVFLFTLFFVL
**Q.** Which binding does the source give for B2 here?
**A.** binds

B3: ATP synthase-coupling factor 6, mitochondrial (protein, UniProt P97450 33-108)
chain: NKELDPVQKLFVDKIREYKSKRQASGGPVDIGPEYQQDLDRELYKLKQMYGKGEMDTFPTFKFDDPKFEVIDKPQS
**Q.** With B3 as the binder, how does the binding read?
**A.** binds

B4: Ras and Rab interactor 1 (protein, UniProt Q921Q7 1-763)
chain: MEDPGETGAHPLGATNLNFVPGHQQKEKPSTDPLYDTPDTRGVQAGGSQQPARTVSLRERLLITRPVWLQLRANAAAALHVLRTEPPGTFLVRKSNTRQCQALCVRLPEASGPSFVSSHYIEESTGGVSLEGSELMFQDLVQLICGYCRTRAIHQAATHKELEAISHLGMEFWSSSLNTKDQQRPSEAPPIPRLKARSPQELDQGTGAALCFFNPLFPGDLGPTKREKFKRSFKVRVSTETSSPLSPPAVPPPPVPVLPGTSSSQTERLPPRQLLQRESSVGYRVPGSAASPCLPPLPSLQEVDCCSPSSSEEEGSSGSPTTSPRLSRPRHRRPLLRSMSSAFCSLLAPERQVGRAATMLMQNRYTAVGQLVQDLLTQVRAGPEPRELQGIRQALSRARAMLSAELGPEKLLPPERLELVLEKSLHRSVLKPLRPILAARLRRRLSADGSLGRLAEGFRLARTQGPGAFGSHLTLSSPVETEQVRQKLLQLLRAYSPSAQVKWLLQACKLLYTALKSQAGENAGADEFLPLLSLVLAQCDLPDLLLEAEYMSELLEPTLLTGEGGYYLTSLSASLALLSGLSQARALPLSPAQELQRSLALWEQRRLPATHSFQHLLRVAYQDPSTGCTSKTLAVPPGSSIATLSQLCATKFRVTQPDAFGLFLYKDQGYHRLPPEALAHRLPATGYLIYRRAERPETQGAVAEKAKTGSKGPEAGAWEEETGGLNREGKPRIAVDQEGKDQARGGHIGPEEQKAEGSQALEE
**Q.** B4 was tested. Which binding did it give?
**A.** binds

B5: Apolipoprotein E (protein, UniProt P08226 19-311)
chain: EGEPEVTDQLEWQSNQPWEQALNRFWDYLRWVQTLSDQVQEELQSSQVTQELTALMEDTMTEVKAYKKELEEQLGPVAEETRARLGKEVQAAQARLGADMEDLRNRLGQYRNEVHTMLGQSTEEIRARLSTHLRKMRKRLMRDAEDLQKRLAVYKAGAREGAERGVSAIRERLGPLVEQGRQRTANLGAGAAQPLRDRAQAFGDRIRGRLEEVGNQARDRLEEVREHMEEVRSKMEEQTQQIRLQAEIFQARLKGWFEPIVEDMHRQWANLMEKIQASVATNPIITPVAQENQ
**Q.** B5 was tested. Which binding did it give?
**A.** binds

B6: Alpha-crystallin B chain (protein, UniProt P23927 1-175)
chain: MDIAIHHPWIRRPFFPFHSPSRLFDQFFGEHLLESDLFSTATSLSPFYLRPPSFLRAPSWIDTGLSEMRLEKDRFSVNLDVKHFSPEELKVKVLGDVIEVHGKHEERQDEHGFISREFHRKYRIPADVDPLTITSSLSSDGVLTVNGPRKQVSGPERTIPITREEKPAVAAAPKK
**Q.** B6 was tested. Which binding did it give?
**A.** binds

B7: ATP-citrate synthase (protein, UniProt Q91V92 1-1091)
chain: MSAKAISEQTGKELLYKYICTTSAIQNRFKYARVTPDTDWAHLLQDHPWLLSQSLVVKPDQLIKRRGKLGLVGVNLSLDGVKSWLKPRLGHEATVGKAKGFLKNFLIEPFVPHSQAEEFYVCIYATREGDYVLFHHEGGVDVGDVDAKAQKLLVGVDEKLNTEDIKRHLLVHAPEDKKEVLASFISGLFNFYEDLYFTYLEINPLVVTKDGVYILDLAAKVDATADYICKVKWGDIEFPPPFGREAYPEEAYIADLDAKSGASLKLTLLNPKGRIWTMVAGGGASVVYSDTICDLGGVNELANYGEYSGAPSEQQTYDYAKTILSLMTREKHPEGKILIIGGSIANFTNVAATFKGIVRAIRDYQGPLKEHEVTIFVRRGGPNYQEGLRVMGEVGKTTGIPIHVFGTETHMTAIVGMALGHRPIPNQPPTAAHTANFLLNASGSTSTPAPSRTASFSESRADEVAPAKKAKPAMPQGKSATLFSRHTKAIVWGMQTRAVQGMLDFDYVCSRDEPSVAAMVYPFTGDHKQKFYWGHKEILIPVFKNMADAMKKHPEVDVLINFASLRSAYDSTMETMNYAQIRTIAIIAEGIPEALTRKLIKKADQKGVTIIGPATVGGIKPGCFKIGNTGGMLDNILASKLYRPGSVAYVSRSGGMSNELNNIISRTTDGVYEGVAIGGDRYPGSTFMDHVLRYQDTPGVKMIVVLGEIGGTEEYKICRGIKEGRLTKPVVCWCIGTCATMFSSEVQFGHAGACANQASETAVAKNQALKEAGVFVPRSFDELGEIIQSVYEDLVAKGAIVPAQEVPPPTVPMDYSWARELGLIRKPASFMTSICDERGQELIYAGMPITEVFKEEMGIGGVLGLLWFQRRLPKYSCQFIEMCLMVTADHGPAVSGAHNTIICARAGKDLVSSLTSGLLTIGDRFGGALDAAAKMFSKAFDSGIIPMEFVNKMKKEGKLIMGIGHRVKSINNPDMRVQILKDFVKQHFPATPLLDYALEVEKITTSKKPNLILNVDGFIGVAFVDMLRNCGSFTREEADEYVDIGALNGIFVLGRSMGFIGHYLDQKRLKQGLYRHPWDDISYVLPEHMSM
**Q.** With B7 as the binder, how does the binding read?
**A.** binds

B8: Alpha-soluble NSF attachment protein (protein, UniProt Q9DB05 1-295)
chain: MDNSGKQAEAMALLAEAERKVKNSQSFFSGLFGGSSKIEEACEIYARAANMFKMAKNWSAAGNAFCQAAQLHLQLQSKHDAATCFVDAGNAFKKADPQEAINCLMRAIEIYTDMGRFTIAAKHHISIAEIYETELVDVEKAIAHYEQSADYYKGEESNSSANKCLLKVAGYAAQLEQYQKAIDIYEQVGTSAMDSPLLKYSAKDYFFKAALCHFCIDMLNAKLAVQKYEELFPAFSDSRECKLMKKLLEAHEEQNVDSYTEAVKEYDSISRLDQWLTTMLLRIKKTIQGDEEDLR
**Q.** Which binding does the source give for B8 here?
**A.** binds

B9: Phospholipase A-2-activating protein (protein, UniProt P27612 1-794)
chain: MASGASRYRLSCSLPGHELDVRGLVCCLYPPGAFVSVSRDRTTRLWAPDSPNRGFTEMHCMSGHSNFVSCVCIIPSSDIYPHGLIATGGNDHNICIFSLDSPMPLYILKGHKDTVCSLSSGKFGTLLSGSWDTTAKVWLNDKCMMTLQGHTAAVWAVKILPEQGLMLTGSADKTIKLWKAGRCERTFLGHEDCVRGLAILSETEFLSCANDASIRRWQITGECLEVYFGHTNYIYSISVFPNSKDFVTTAEDRSLRIWKHGECAQTIRLPAQSIWCCCVLENGDIVVGASDGIIRVFTESEERTASAEEIKAFERELSQATIDSKTGDLGDINAEQLPGREHLSEPGTREGQTRLIRDGERVEAYQWSVSDGRWIKIGDVVGSSGANQQTSGKVLYEGKEFDYVFSIDVNEGGPSYKLPYNVSDDPWLVAYNFLQKNDLNPMFLDQVAKFIIDNTKGQTLGLGNTSFSDPFTGGGRYVPGTSGPSNTVQTADPFTGAGRYMPGSAGMDTTMTGVDPFTGNSAYRSAASKTVNIYFPKKEALTFDQANPTQILGKLKELNGTAPEEKKLTEDDLVLLEKILSLICNNSSEKPTAQQLQILWKAINWPEDIVFPALDILRLSIKHPNVNENFCNEKGDQFSSHLINLLNPKGKPANQLLALRTFCNCFVSQAGQKLMMSQRESLMSHAIELKSGSNKNIHIALATLTLNYSVCFHKDHNIEGKAQCLSVISTILEVVQDLEATFRLLVALGTLISDDSNAIQLAKSLGVDSQIKKYVSVSEPAKVSECCRLVLHLL
**Q.** B9 was tested. Which binding did it give?
**A.** binds

B10: LanC-like protein 2 (protein, UniProt Q9JJK2 1-450)
chain: MGETMSKRLKFHLGEAEMEERSFPNPFPDYEAAASAAGLAAGSAEETGRVCPLPTTEDPGLPFHPNGKIVPNFIKRIQTKIKDLLQQMEEGLKTADPHDCSAYTGWTGIALLYLQLYRVTGDQTYLLRSLDYVKRTLRNLSGRRVTFLCGDAGPLAVGAVIYHKLKSECESQECITKLLQMHRTIVCQESELPDELLYGRAGYLYALLYLNTEIGPGTVGETAIKEVVSAIIESGKSLSREERKSERCPLLYQWHRKQYVGAAHGMAGIYYMLMQPEAKVDQETLTEMVKPSIDYVRHKKFRSGNYPSSLSNETDRLVHWCHGAPGVIHVLLQAYQVFKEEKYLKEAMECSDVIWQRGLLRKGYGICHGTSGNGYSFLSLYRLTQDKKYLYRACKFAEWCLDYGAHGCRIPDRPYSLFEGMAGAVHFLSDILVPETARFPAFELGFLQKD
**Q.** B10 was tested. Which binding did it give?
**A.** binds
